# Where “and” joins values, the source holds several entries; their conditions need not be identical. Identical values can stand only once. The list shows a part of the results.
# Tests used:
# Assay in all cases: protein microarray (ProtoArray v5.0), streptavidin-Alexa Fluor 647
# Settings in all cases: 3'-biotin; 20 mM Tris (pH 7.5), 5 mM MgCl2, 100 mM KCl, 0.1% Tween-20, A/T-rich and random oligonucleotide blockers; temperature not stated; high values mean tight binding
# [1] = system: SH3BGRL2 (human)
# [2] = system: SH3BGRL3 (human)
# [3] = system: SH3GLB1 (human)
# [4] = system: SH3TC1 (human)
# [5] = system: SIN3A (human)
# [6] = system: SIP1 (human)
# [7] = system: SIRPG (human)
# [8] = system: SIVA1 (human)
# [9] = system: SKIL (human)
# [10] = system: SKIP (human)
# [11] = system: SKP1A (human)
# [12] = system: SLAMF1 (human)
# [13] = system: SLC10A1 (human)
# [14] = system: SLC16A4 (human)
# [15] = system: SLC22A18AS (human)
# [16] = system: SLC22A6 (human)
# [17] = system: SLC23A2 (human)
# [18] = system: SLC25A13 (human)
# [19] = system: SLC25A27 (human)
# [20] = system: SLC25A29 (human)
sequence,measurement,setting,value
GGGAGGCTGAGGCAGG [G4-1 biotinylated (PQS2)],binding signal,[1],-0.281 z-score
same,binding signal,[2],-0.288 z-score
same,binding signal,[3],-0.352 z-score
same,binding signal,[4],-0.289 z-score
same,binding signal,[5],-0.287 z-score
same,binding signal,[6],-0.365 z-score
same,binding signal,[7],-0.321 z-score and -0.314 z-score
same,binding signal,[8],-0.325 z-score
same,binding signal,[9],-0.316 z-score
same,binding signal,[10],-0.313 z-score
same,binding signal,[11],-0.365 z-score
same,binding signal,[12],-0.246 z-score
same,binding signal,[13],-0.291 z-score
same,binding signal,[14],-0.301 z-score
same,binding signal,[15],-0.284 z-score
same,binding signal,[16],-0.299 z-score
same,binding signal,[17],-0.295 z-score
same,binding signal,[18],-0.303 z-score
same,binding signal,[19],-0.266 z-score
same,binding signal,[20],-0.262 z-score

# From publication PMC5996148
